These are yes or no findings as the source states them, for the method shown. In cells and extracts the contact can be indirect. A result given as binding can be weak or reduced; the word gives no strength.
Target: T1, Acid sphingomyelinase (human (endogenous in naive CD4+ T cells from blood)) (UniProt P17405)
T1 sequence: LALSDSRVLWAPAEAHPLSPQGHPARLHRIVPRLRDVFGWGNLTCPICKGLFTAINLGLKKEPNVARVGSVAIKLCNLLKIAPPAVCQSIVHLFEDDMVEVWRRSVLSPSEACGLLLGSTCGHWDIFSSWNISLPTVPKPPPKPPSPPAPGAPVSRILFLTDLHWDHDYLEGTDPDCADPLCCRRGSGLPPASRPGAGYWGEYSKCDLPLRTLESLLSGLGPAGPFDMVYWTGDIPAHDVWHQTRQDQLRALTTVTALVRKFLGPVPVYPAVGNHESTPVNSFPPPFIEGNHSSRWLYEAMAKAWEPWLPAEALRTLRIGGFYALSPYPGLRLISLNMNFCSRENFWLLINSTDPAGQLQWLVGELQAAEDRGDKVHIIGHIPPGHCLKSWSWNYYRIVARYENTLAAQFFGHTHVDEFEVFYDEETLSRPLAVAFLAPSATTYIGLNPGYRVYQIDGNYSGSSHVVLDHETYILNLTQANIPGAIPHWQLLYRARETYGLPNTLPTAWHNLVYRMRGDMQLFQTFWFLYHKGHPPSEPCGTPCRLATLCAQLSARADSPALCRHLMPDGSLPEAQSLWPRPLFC
Experiment: co-IP; naive CD4+ T-cell lysates in RIPA buffer (1 mM EDTA, 50 mM Tris-HCl pH 7.4, 150 mM NaCl, 1% NP-40, 0.25% sodium deoxycholate); mouse anti-human ASM antibody 3 h at 4 °C, Protein G-Sepharose 4B; blots for CD3 and CD28; mouse IgG or beads only as capture controls

Substance: CD3 (receptor)
- binding: binds
